Publication PMC10692228, “A simple method for developing lysine targeted covalent protein reagents” (Nature Communications, 2023)
No constants are given. Whether binding was seen depends on the method and setting.

What was measured:
Experiment in all cases: SEC-MALS; both purified
[1] = biological target: Im9 mutant (C23A/E41C), unmodified (UniProt P13479)
[2] = biological target: colicin E9 immunity protein (Im9), wild type (UniProt P13479)
[3] = biological target: methacrylate-modified Im9 mutant (C23A/E41C) (UniProt P13479)

**Q.** Which binding [1] does the source give for “Im9 mutant (C23A/E41C), unmodified (from UniProt P13479 1-86)” here?
**A.** The binding was “no binding (tested: 200 µM)”.

**Q.** “colicin E9 immunity protein (Im9), wild type (from UniProt P13479 1-86)” was tested. Which binding [2] did it give?
**A.** The binding was “no binding (tested: 200 µM)”.

**Q.** With “methacrylate-modified Im9 mutant (C23A/E41C) (from UniProt P13479 1-86)” as the substance, how does the binding [3] read?
**A.** Its binding is “no binding (tested: 200 µM)”.
